Measurements reported in patent EP4748864A1, “POLYMERIZATION INITIATOR OR PHOTOSENSITIZER, POLYMERIZATION INITIATION COMPOSITION, AND METHOD FOR PRODUCING RESIN” (Miyoshi Oil & Fat Co., Ltd., priority 2023, dated 2025).
Some entries repeat one wording, which the source may state once for all of them.

Legend:
[1] = Reactivity of polymerization initiator composition (1): photopolymerization at 365 nm (LED), reaction conversion by NMR; details: for polymerization reaction / photopolymerization, result in words: butyl acrylate; for Reaction conversion 5 min / Reaction conversion 10 min: 0.15 g component (A), 0.15 g component (B) in 3.0 g butyl acrylate; for Reaction conversion 5 min: 5 min (500 mJ/cm^2); for Reaction conversion 10 min: 10 min (1000 mJ/cm^2)
[2] = Sensitizer test: component (A) with component (C), photopolymerization at 365 nm (LED), reaction conversion by NMR; details: butyl acrylate (M-1), compounding ratio as in Tables 7A-7C (% by mass); for Reaction conversion 1 min: 1 min (100 mJ/cm^2); for Reaction conversion 2 min: 2 min (200 mJ/cm^2); for Reaction conversion 3 min: 3 min (300 mJ/cm^2)

SMILES | polymerization reaction / photopolymerization, result in words [1] | Reaction conversion 1 min [2] | Reaction conversion 2 min [2] | Reaction conversion 3 min [2] | Reaction conversion 5 min [1] | Reaction conversion 10 min [1]
Cc1ccc(C)c(Sc2ccc(C(=O)c3ccc(Sc4cc(C)ccc4C)cc3)cc2)c1 [A-12, 4,4'-Dithio(2,5-dimethylphenyl)benzophenone] | proceeded more efficiently |  |  |  |  | 
CSc1ccc(C(=O)C(C)(C)N2CCOCC2)cc1 [C-4] |  | 20% | 28% | 30% |  | 
CCOC(=O)c1ccc(N(C)C)cc1 [B-1] | did not proceed |  |  |  | 0% | 0%
Cc1ccc(Sc2ccc(C(=O)c3ccc(Sc4ccc(C)cc4C)cc3)cc2)c(C)c1 [A-11, 4,4'-Dithio(2,4-dimethylphenyl)benzophenone] | proceeded more efficiently |  |  |  |  | 
Cc1cc(C(C)(C)C)ccc1Sc1ccc(C(=O)c2ccc(Sc3ccc(C(C)(C)C)cc3C)cc2)cc1 [A-9, 4,4'-Dithio(4-tert-butyl-2-methylphenyl)benzophenone] | proceeded more efficiently |  |  |  |  | 
Cc1cc(C)c(C(=O)P(=O)(C(=O)c2c(C)cc(C)cc2C)c2ccccc2)c(C)c1 [C-5] |  | 77% | 77% | 93% |  | 
S=C(c1ccc(-c2ccccc2)cc1)c1ccc(-c2ccccc2)cc1 [A-1, 4,4'-Diphenylthiobenzophenone] | did not proceed |  |  |  | 0% | 0%
CC(C)(C)c1ccc(Sc2ccc(C(=O)c3ccc(Sc4ccc(C(C)(C)C)cc4)cc3)cc2)cc1 [A-4, 4,4'-Bis(p-tert-butylphenylthio)benzophenone] | proceeded more efficiently |  |  |  |  | 
CCC(Cc1ccccc1)(C(=O)c1ccc(N2CCOCC2)cc1)N(C)C (centres unmarked) [C-3] |  | 29% | 37% | 48% |  | 
Cc1cc(C)c(C(=O)P(=O)(c2ccccc2)c2ccccc2)c(C)c1 [C-6] |  | 55% | 63% | 78% |  | 
CC(C)c1ccc(Sc2ccc(C(=O)c3ccc(Sc4ccc(C(C)C)cc4)cc3)cc2)cc1 [A-3, 4,4'-Bis(p-isopropylphenylthio)benzophenone] | proceeded more efficiently |  |  |  |  | 
COC(OC)(C(=O)c1ccccc1)c1ccccc1 [C-1] |  | 54% | 70% | 72% |  | 
